Substitutions are numbered along the chain they refer to. Results are given in words; binding and its absence hold for the method and conditions named. In cells and extracts the contact can be indirect. Some binding calls cover weakened binding; strength is not graded here. For part of these data: Where a sequence is shown, tags or fusion partners need not be part of it.
Key:
Assay in all cases: co-IP
[1] = target: HA-Zdhhc14 (mouse) (mouse) (UniProt Q8BQQ1)
[2] = target: HA-Zdhhc5^ANAA (triple alanine mutant) (mouse) (UniProt Q8VDZ4)
[3] = target: T1, HA-Zdhhc1 (mouse) (mouse) (UniProt Q8R0N9)
T1 sequence: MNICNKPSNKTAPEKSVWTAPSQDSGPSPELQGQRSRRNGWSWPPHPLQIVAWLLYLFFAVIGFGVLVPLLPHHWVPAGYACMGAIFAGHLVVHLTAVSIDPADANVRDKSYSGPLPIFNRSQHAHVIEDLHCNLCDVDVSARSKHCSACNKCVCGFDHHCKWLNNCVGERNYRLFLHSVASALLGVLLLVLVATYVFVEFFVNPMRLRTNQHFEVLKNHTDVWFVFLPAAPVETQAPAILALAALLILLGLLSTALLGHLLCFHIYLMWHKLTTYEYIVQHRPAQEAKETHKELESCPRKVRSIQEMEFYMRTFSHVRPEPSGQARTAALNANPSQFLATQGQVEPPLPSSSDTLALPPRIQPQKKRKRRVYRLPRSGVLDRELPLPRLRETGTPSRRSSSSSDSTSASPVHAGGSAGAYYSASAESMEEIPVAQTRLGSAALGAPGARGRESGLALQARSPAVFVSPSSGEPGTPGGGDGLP

Chains of the proteins cited; added tags and fusions are not shown. Lines headed by an entry give the natural chain unless they say otherwise; changes in a name come on top.
UniProt Q8BQQ1, whole entry: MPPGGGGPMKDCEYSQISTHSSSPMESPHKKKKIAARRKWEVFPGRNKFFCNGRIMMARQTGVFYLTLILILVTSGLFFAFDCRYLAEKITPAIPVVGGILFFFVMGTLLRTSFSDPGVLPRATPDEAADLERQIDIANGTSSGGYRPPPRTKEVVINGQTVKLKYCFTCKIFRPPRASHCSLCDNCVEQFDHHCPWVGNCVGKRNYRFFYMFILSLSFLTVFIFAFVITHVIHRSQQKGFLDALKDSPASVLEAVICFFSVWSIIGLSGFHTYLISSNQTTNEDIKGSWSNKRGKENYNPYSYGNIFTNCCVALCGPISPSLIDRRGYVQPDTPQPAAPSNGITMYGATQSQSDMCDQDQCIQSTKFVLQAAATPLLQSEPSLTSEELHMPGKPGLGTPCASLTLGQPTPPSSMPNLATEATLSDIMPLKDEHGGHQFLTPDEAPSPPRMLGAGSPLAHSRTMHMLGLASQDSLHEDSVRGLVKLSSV
UniProt Q8VDZ4, whole entry, looked up, stated change not applied: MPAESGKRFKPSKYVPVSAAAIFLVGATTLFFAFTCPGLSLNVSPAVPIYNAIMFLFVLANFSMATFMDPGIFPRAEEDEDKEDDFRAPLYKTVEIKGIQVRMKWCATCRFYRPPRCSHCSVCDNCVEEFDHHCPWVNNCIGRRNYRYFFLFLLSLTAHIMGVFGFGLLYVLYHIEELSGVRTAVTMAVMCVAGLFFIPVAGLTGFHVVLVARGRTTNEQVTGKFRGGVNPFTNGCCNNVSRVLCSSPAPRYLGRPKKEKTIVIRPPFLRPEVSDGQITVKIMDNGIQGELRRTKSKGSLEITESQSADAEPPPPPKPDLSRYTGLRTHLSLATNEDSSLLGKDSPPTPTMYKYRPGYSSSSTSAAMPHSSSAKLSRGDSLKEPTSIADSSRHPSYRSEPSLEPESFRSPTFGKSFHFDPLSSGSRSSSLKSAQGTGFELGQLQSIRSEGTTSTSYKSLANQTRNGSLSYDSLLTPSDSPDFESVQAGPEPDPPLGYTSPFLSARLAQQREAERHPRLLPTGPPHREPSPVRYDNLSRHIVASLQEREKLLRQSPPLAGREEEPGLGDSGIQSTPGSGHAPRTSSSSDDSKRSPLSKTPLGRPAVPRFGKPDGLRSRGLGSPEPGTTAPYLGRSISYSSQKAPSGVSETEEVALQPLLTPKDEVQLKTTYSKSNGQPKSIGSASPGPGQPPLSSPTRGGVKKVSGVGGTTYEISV
UniProt Q7Z5G4, whole entry: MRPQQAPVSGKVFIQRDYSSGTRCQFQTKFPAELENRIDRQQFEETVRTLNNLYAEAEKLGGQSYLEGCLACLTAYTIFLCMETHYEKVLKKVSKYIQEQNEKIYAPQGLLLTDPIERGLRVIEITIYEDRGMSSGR

[4] = target: Zdhhc5^RNAA (Tyr146Ala, Arg147Ala) (mouse) (UniProt Q8VDZ4)
Zdhhc4^RNYR (mouse) = target: T2, Zdhhc4^RNYR (mouse) (UniProt Q9D6H5)
T2 sequence: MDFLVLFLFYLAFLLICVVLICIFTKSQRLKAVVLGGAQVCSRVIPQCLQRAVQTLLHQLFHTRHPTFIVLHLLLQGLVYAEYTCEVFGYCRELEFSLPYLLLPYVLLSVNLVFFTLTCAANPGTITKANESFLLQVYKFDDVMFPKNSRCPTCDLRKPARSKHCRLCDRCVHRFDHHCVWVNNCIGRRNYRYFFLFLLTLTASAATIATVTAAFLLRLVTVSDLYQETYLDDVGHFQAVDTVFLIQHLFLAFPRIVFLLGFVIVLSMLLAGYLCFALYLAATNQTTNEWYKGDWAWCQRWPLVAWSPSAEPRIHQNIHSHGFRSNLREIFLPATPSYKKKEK

[5] = target: Zdhhc5^RNFR (Tyr146Phe) (mouse) (UniProt Q8VDZ4)
[6] = target: HA-Zdhhc5^ΔDHHC (Δ104-154) (mouse) (UniProt Q8VDZ4)
[7] = target: T3, HA-Zdhhc7 (mouse) (mouse) (UniProt Q91WU6)
T3 sequence: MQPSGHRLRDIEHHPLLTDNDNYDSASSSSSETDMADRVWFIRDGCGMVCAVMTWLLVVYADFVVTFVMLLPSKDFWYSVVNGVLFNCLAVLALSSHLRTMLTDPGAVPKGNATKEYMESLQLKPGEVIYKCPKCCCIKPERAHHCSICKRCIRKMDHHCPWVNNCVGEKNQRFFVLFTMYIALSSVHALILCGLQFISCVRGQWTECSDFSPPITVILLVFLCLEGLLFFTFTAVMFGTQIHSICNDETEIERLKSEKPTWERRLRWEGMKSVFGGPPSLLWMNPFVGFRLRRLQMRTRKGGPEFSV

[8] = target: T4, HA-Zdhhc4 (mouse) (mouse) (UniProt Q9D6H5)
T4 sequence: T2 sequence with R188A, R189W, Y191T, F195L, L196I, F197Y

## endogenous human GOLGA7 (from UniProt Q7Z5G4 1-137)
[1]
  binding: binds
[2]
  binding: no binding
[3]
  binding: binds
[4]
  binding: no binding
Zdhhc4^RNYR (mouse)
  binding: no binding
[5]
  binding: binds
[6]
  binding: no binding
[7]
  binding: no binding
[8]
  binding: no binding

— article doi:10.1101/2025.04.28.651057
